These are yes or no findings as the source states them, for the method shown. Binding seen in cells or lysates may run through a third protein. Binding can be weak; no strength is given.
Tests used:
[1] = target: SCAN domain of ZNF397 with Flag tag (human (cDNA from HEK293T)) (UniProt Q8NF99); experiment: co-IP
[2] = target: androgen receptor (AR) with Flag tag (UniProt P10275); experiment: co-IP

Sequences of proteins named here, by UniProt entry; tags and fusion partners are left off.
UniProt P10275, whole entry: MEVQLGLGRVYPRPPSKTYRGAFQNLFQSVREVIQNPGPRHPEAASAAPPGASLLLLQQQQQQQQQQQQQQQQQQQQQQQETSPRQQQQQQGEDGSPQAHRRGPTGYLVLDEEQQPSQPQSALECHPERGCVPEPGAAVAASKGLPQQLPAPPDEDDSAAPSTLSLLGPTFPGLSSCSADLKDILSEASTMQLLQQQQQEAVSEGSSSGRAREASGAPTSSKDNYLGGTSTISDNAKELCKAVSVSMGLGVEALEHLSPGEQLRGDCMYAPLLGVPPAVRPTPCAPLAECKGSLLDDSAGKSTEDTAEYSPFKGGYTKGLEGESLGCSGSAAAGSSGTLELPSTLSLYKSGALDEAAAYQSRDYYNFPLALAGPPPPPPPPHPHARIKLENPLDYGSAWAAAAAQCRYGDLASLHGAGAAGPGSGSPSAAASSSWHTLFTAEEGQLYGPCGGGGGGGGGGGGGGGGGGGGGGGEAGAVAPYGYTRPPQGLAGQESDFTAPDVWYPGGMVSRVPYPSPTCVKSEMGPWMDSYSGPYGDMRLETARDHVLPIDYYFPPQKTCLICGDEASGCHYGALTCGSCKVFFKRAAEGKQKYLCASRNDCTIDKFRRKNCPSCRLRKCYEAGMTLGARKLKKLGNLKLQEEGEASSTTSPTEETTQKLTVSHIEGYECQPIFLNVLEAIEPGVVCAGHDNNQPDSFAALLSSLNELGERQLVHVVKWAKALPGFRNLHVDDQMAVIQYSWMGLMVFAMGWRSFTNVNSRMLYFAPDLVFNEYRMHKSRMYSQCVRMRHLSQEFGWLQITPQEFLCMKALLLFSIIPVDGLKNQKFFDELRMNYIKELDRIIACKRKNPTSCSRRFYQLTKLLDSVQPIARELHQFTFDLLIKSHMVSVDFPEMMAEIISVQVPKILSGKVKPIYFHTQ

Substance	binding [1]	binding [2]
cysteine-rich dioxygenase (CD) domain of TET2 with Myc tag (from UniProt Q6N021) (domain or fragment)	binds	–
SCAN domain of ZNF397 with TY1 tag (from UniProt Q8NF99) (domain or fragment)	–	binds

Source: paper doi:10.1101/2023.10.24.563645
